Measurements: article PMC11605454
Results are given in words; binding and its absence hold for the method and conditions named. In cells and extracts the contact can be indirect. Some entries that bind do so weakly or less than the wild type.

Amino acid sequences for entries named in this document (tags omitted). A change or cut given only in a name is not applied to a line headed by its entry.
UniProt Q6ZPK0: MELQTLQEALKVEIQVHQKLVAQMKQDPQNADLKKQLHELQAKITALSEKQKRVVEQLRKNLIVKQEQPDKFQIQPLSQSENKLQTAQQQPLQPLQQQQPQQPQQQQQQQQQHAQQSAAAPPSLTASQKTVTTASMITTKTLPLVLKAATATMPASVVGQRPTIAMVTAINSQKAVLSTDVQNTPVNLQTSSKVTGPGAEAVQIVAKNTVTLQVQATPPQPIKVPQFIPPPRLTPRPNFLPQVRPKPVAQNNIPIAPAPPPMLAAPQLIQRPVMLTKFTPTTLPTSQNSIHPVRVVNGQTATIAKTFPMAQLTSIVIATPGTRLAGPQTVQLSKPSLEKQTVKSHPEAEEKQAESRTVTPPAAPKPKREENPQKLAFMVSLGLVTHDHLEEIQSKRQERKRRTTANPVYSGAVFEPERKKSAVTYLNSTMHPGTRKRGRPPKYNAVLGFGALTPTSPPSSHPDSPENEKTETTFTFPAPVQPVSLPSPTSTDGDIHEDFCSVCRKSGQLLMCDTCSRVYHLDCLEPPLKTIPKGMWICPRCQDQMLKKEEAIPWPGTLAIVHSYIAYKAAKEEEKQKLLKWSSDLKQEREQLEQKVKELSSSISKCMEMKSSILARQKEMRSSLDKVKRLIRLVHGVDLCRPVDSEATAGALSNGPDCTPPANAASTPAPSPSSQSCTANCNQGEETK

Biological target: PHF21A canonical isoform (PHF21A-c), mouse (mouse (endogenous in MEF and in Phf21a Δn/Δn cortex)) (UniProt Q6ZPK0)
Test: co-IP; anti-PHF21A antibody crosslinked to Protein A/G beads, control rabbit IgG; nuclear extracts (0.6 M KCl extraction) of LUHMES cells (day 0, day 3), 293T cells, MEFs, cortical neurons (DIV7) or P0 mouse cortices; 3 h at 4 °C; Western blot

B1: HMG20B (BRAF35), mouse (protein, UniProt Q9Z104 1-317)
chain: MSHGPRQPGAATAPAGGKTPGQHGAFVVAVKQERSEGSRAGEKGPQEEEPVKKRGWPKGKKRKKILPNGPKAPVTGYVRFLNERREQIRTRHPDLPFPEITKMLGAEWSKLQPAEKQRYLDEAEKEKQQYLKELWAYQQSEAYKVCTEKIQENKIKKEDSSSGLMNTLLNGHKGVDCDGFSTFDVPIFTEEFLDQNKAREAELRRLRKMNVAFEEQNAVLQRHTQSMSSARERLEQELALEERRTLALQQQLQAVRQALTASFASLPVPGTGETPTLGTLDFYMARLHGAIERDPAQHERLIARVKEILARVASEHL
binding: binds
